Measurements reported in PubChem BioAssay AID1259254 (NCATS, 2017).
The deposit covers about 59,000 reagents; this is a part drawn at random. About 1,550 of them (2.6%) were called active. 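G2 share is only a proxy for re-replication; each gene was hit by three separate siRNAs, and active genes were retested.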 The numbers tell different reagents against one gene apart. Further read-outs or replicates are left out here. Not given: the amount of reagent.

Test: 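Finding genes that stop cells copying their DNA twice in one cycle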 (primary screen)
System: human HCT116 colorectal cancer cells
Knock-down reagent: single siRNA against human genes
Timing: 3 days
Detection: 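Nuclei stained with Hoechst and imaged; cell-cycle phase assigned by DNA content; G2 share scaled per plate, non-targeting siRNA 0%, GMNN siRNA 100%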
Direction: G2 robust z-score and G2 cells, % of GMNN control: higher = more G2 cells, more excess DNA replication
Hit rule: 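An siRNA counts as active if its G2 robust z-score lies at least 5 MADs above the screen median; here such calls match roughly 38% of GMNN control or more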

SLC35G3 (GeneID 146861) #1
- G2 robust z-score: 0.0127
- G2 cells, % of GMNN control: 3.06
- Call: inactive

SLC35G3 (GeneID 146861) #2
- G2 robust z-score: -0.462
- G2 cells, % of GMNN control: -0.286
- Call: inactive

SLC35G3 (GeneID 146861) #3
- G2 robust z-score: 1.44
- G2 cells, % of GMNN control: 13.1
- Call: inactive

KIFC1 (GeneID 3833) #1
- G2 robust z-score: 0.285
- G2 cells, % of GMNN control: 4.97
- Call: inactive

KIFC1 (GeneID 3833) #2
- G2 robust z-score: -1.12
- G2 cells, % of GMNN control: -4.92
- Call: inactive

KIFC1 (GeneID 3833) #3
- G2 robust z-score: -1.18
- G2 cells, % of GMNN control: -5.37
- Call: inactive

SLC16A7 (GeneID 9194) #1
- G2 robust z-score: -1.02
- G2 cells, % of GMNN control: -4.2
- Call: inactive

SLC16A7 (GeneID 9194) #2
- G2 robust z-score: 0.0944
- G2 cells, % of GMNN control: 3.63
- Call: inactive

SLC16A7 (GeneID 9194) #3
- G2 robust z-score: -1.53
- G2 cells, % of GMNN control: -7.79
- Call: inactive

Entries listed so far whose target name starts with S or s:
SLC35G3 (GeneID 146861) #1
- G2 robust z-score: 0.0127
- G2 cells, % of GMNN control: 3.06
- Call: inactive

SLC35G3 (GeneID 146861) #2
- G2 robust z-score: -0.462
- G2 cells, % of GMNN control: -0.286
- Call: inactive

SLC35G3 (GeneID 146861) #3
- G2 robust z-score: 1.44
- G2 cells, % of GMNN control: 13.1
- Call: inactive

SLC16A7 (GeneID 9194) #1
- G2 robust z-score: -1.02
- G2 cells, % of GMNN control: -4.2
- Call: inactive

SLC16A7 (GeneID 9194) #2
- G2 robust z-score: 0.0944
- G2 cells, % of GMNN control: 3.63
- Call: inactive

SLC16A7 (GeneID 9194) #3
- G2 robust z-score: -1.53
- G2 cells, % of GMNN control: -7.79
- Call: inactive

Continued:
DCANP1 (GeneID 140947) #1
- G2 robust z-score: 0.232
- G2 cells, % of GMNN control: 4.6
- Call: inactive

DCANP1 (GeneID 140947) #2
- G2 robust z-score: 2.29
- G2 cells, % of GMNN control: 19.1
- Call: inactive

DCANP1 (GeneID 140947) #3
- G2 robust z-score: -0.808
- G2 cells, % of GMNN control: -2.72
- Call: inactive

KCNA5 (GeneID 3741) #1
- G2 robust z-score: 0.255
- G2 cells, % of GMNN control: 4.76
- Call: inactive

KCNA5 (GeneID 3741) #2
- G2 robust z-score: -0.583
- G2 cells, % of GMNN control: -1.13
- Call: inactive

KCNA5 (GeneID 3741) #3
- G2 robust z-score: 1.71
- G2 cells, % of GMNN control: 15
- Call: inactive

LSP1P4 (GeneID 654342) #1
- G2 robust z-score: -0.384
- G2 cells, % of GMNN control: 0.266
- Call: inactive

LSP1P4 (GeneID 654342) #2
- G2 robust z-score: -0.576
- G2 cells, % of GMNN control: -1.08
- Call: inactive

LSP1P4 (GeneID 654342) #3
- G2 robust z-score: 0.191
- G2 cells, % of GMNN control: 4.31
- Call: inactive
